Among the data in patent US11993629 (dated 2024) are step yield values, retold here.

The nature of the data set: general procedure: solution-phase peptide synthesis; isobutyl chloroformate/N-methylmorpholine; (1-cyano-2-ethoxy-2-oxoethylideneamin).

*: point of attachment. OBn = c1ccc(CO*)cc1; tBu = CC(C)(C)*

Regarding H-FAS(tBu)F-OBn, the step yield entry is, setting by setting: (late stage modification step, run 1) “Yield: 98%”; (late stage modification step, run 2) “Yield: 95%”.
In the case of CHBSoc-Phe-Ala-Ser(t-Bu)-Phe-OBn, the step yield entry (coupling step) is on record as “Yield: 73%”.
With “H-Phe-Lys(Boc)-Asp(O(t-Bu))-Phe-Phe-Phe-OH”, the step yield entry (late stage modification step) is “Yield: 74%”.
Turning to “IPCSoc-Phe-Lys(Boc)-Asp(O(t-Bu))-Phe-Phe-Phe-OBn”, where the note is “coupling step”, the step yield entry is given as “Yield: 73%”.
On to “H-Phe-Lys(Boc)-Asp(O(t-Bu))-Phe-Phe-Phe-OBn”, for which the step yield result (late stage modification step) is listed as “Yield: 96%”.
As to “IPCSoc-Phe-Lys(Boc)-Asp(O(t-Bu))-Phe-Phe-Phe-OH”, where the note is “late stage modification step”, the step yield entry was “Yield: 99%”.
